The values below come from patent US4406883A, “Controlled release suppositories consisting essentially of a linear polymer particularly, polyvinyl pyrrolidones” (Merrell Dow Pharmaceuticals Inc., priority 1981, dated 1983).

The structures appear in SMILES notation. Structures can show the parent of a compound that is named as a salt.

The conditions of series [1]: cited from earlier work.

`CCN(CC)CC(=O)Nc1c(C)cccc1C` [lignocaine hydrochloride]: the “oral dose metabolised in passing through the liver in the portal circulation” value in series [1] was “approximately 65%”. Besides, where the note is “dog, result in words”, the “absorption after rectal administration” value is reported as “well absorbed”. For the same compound, under “male beagle, rectal, 48 h”, the “% total administered dose excreted, total faeces” value was 8%.
